# Laboratory results published in the supplement of paper PMC8728848.
# The other results are listed elsewhere or left out.
# B1: Gal 12 (Homo sapiens), Q96DT0 (protein)
# chain: MSQPSGGRAPGTRIYSWSCPTVMSPGEKLDPIPDSFILQPPVFHPVVPYVTTIFGGLHAGKMVMLQGVVPLDAHRFQVDFQCGCSLCPRPDIAFHFNPRFHTTKPHVICNTLHGGRWQREARWPHLALRRGSSFLILFLFGNEEVKVSVNGQHFLHFRYRLPLSHVDTLGIFGDILVEAVGFLNINPFVEGSREYPAGHPFLLMSPRLEVPCSHALPQGLSPGQVIIVRGLVLQEPKHFTVSLRDQAAHAPVTLRASFADRTLAWISRWGQKKLISAPFLFYPQRFFEVLLLFQEGGLKLALNGQGLGATSMNQQALEQLRELRISGSVQLYCVHS
# Experiments:
# Experiment in all cases: glycan array binding signal (z-score within array); higher = stronger binding
# Conditions in all cases: glycan notation: IUPAC condensed, linker removed
# [1] = biological target: Neu5Ac(a2-3)Gal(b1-4)GlcNAc(b1-2)[Neu5Ac(a2-3)Gal(b1-4)GlcNAc(b1-6)]Man(a1-6)[Neu5Ac(a2-3)Gal(b1-4)GlcNAc(b1-2)Man(a1-3)][GlcNAc(b1-4)]Man(b1-4)GlcNAc(b1-4)GlcNAc
# Procedure, shortened: (§1)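 Negative Z-scores can be read as non-binding. The Z-score is calculated within each array and then averaged across arrays of one protein sequence at different concentrations or buffers and across linkers. Arrays, 3228 in all, were curated from the Consortium for Functional Glycomics database and kept only where the protein sequence was available.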
# [2] = biological target: Neu5Ac(a2-3)Gal(b1-4)GlcNAc(b1-3)Gal
# Procedure, shortened: as §1
# [3] = biological target: Neu5Ac(a2-3)Gal(b1-4)GlcNAc(b1-3)Gal(b1-3)GlcNAc
# Procedure, shortened: as §1
# [4] = biological target: Neu5Ac(a2-3)Gal(b1-4)GlcNAc(b1-3)Gal(b1-4)GlcNAc
# Procedure, shortened: as §1
# [5] = biological target: Neu5Ac(a2-3)Gal(b1-4)GlcNAc(b1-3)Gal(b1-4)GlcNAc(b1-2)Man(a1-3)[Neu5Ac(a2-3)Gal(b1-4)GlcNAc(b1-3)Gal(b1-4)GlcNAc(b1-2)Man(a1-6)]Man(b1-4)GlcNAc(b1-4)GlcNAc
# Procedure, shortened: as §1
# [6] = biological target: Neu5Ac(a2-3)Gal(b1-4)GlcNAc(b1-3)Gal(b1-4)GlcNAc(b1-3)Gal(b1-4)GlcNAc
# Procedure, shortened: as §1
# [7] = biological target: Neu5Ac(a2-3)Gal(b1-4)GlcNAc(b1-3)Gal(b1-4)GlcNAc(b1-3)Gal(b1-4)GlcNAc(b1-2)Man(a1-3)[Neu5Ac(a2-3)Gal(b1-4)GlcNAc(b1-3)Gal(b1-4)GlcNAc(b1-3)Gal(b1-4)GlcNAc(b1-2)Man(a1-6)]GalNAc
# Procedure, shortened: as §1
# [8] = biological target: Neu5Ac(a2-3)Gal(b1-4)GlcNAc(b1-3)Gal(b1-4)GlcNAc(b1-3)GalNAc
# Procedure, shortened: as §1
# [9] = biological target: Neu5Ac(a2-3)Gal(b1-4)GlcNAc(b1-3)Gal(b1-4)GlcNAc(b1-3)[Neu5Ac(a2-3)Gal(b1-4)GlcNAc(b1-3)Gal(b1-4)GlcNAc(b1-6)]GalNAc
# Procedure, shortened: as §1
# [10] = biological target: Neu5Ac(a2-3)Gal(b1-4)GlcNAc(b1-3)Gal(b1-4)GlcNAc(b1-6)[Gal(b1-3)]GalNAc
# Procedure, shortened: as §1
# [11] = biological target: Neu5Ac(a2-3)Gal(b1-4)GlcNAc(b1-3)Gal(b1-4)[Fuc(a1-3)]GlcNAc
# Procedure, shortened: as §1
# [12] = biological target: Neu5Ac(a2-3)Gal(b1-4)GlcNAc(b1-3)GalNAc
# Procedure, shortened: as §1
# [13] = biological target: Neu5Ac(a2-3)Gal(b1-4)GlcNAc(b1-3)[Neu5Ac(a2-3)Gal(b1-4)GlcNAc(b1-6)]GalNAc
# Procedure, shortened: as §1
# [14] = biological target: Neu5Ac(a2-3)Gal(b1-4)GlcNAc(b1-6)GalNAc
# Procedure, shortened: as §1
# [15] = biological target: Neu5Ac(a2-3)Gal(b1-4)GlcNAc(b1-6)[Gal(b1-3)]GalNAc
# Procedure, shortened: as §1
# [16] = biological target: Neu5Ac(a2-3)Gal(b1-4)GlcNAc(b1-6)[Neu5Ac(a2-3)Gal(b1-3)]GalNAc
# Procedure, shortened: as §1
# [17] = biological target: Neu5Ac(a2-3)Gal(b1-4)GlcNAc6S
# Procedure, shortened: as §1
# [18] = biological target: Neu5Ac(a2-3)Gal(b1-4)[Fuc(a1-3)]GlcNAc
# Procedure, shortened: as §1
# [19] = biological target: Neu5Ac(a2-3)Gal(b1-4)[Fuc(a1-3)]GlcNAc(b1-2)Man
# Procedure, shortened: as §1
# [20] = biological target: Neu5Ac(a2-3)Gal(b1-4)[Fuc(a1-3)]GlcNAc(b1-3)Gal
# Procedure, shortened: as §1
# [21] = biological target: Neu5Ac(a2-3)Gal(b1-4)[Fuc(a1-3)]GlcNAc(b1-3)Gal(b1-4)GlcNAc
# Procedure, shortened: as §1
# [22] = biological target: Neu5Ac(a2-3)Gal(b1-4)[Fuc(a1-3)]GlcNAc(b1-3)Gal(b1-4)[Fuc(a1-3)]GlcNAc(b1-3)Gal(b1-4)[Fuc(a1-3)]GlcNAc
# Procedure, shortened: as §1
# [23] = biological target: Neu5Ac(a2-3)Gal(b1-4)[Fuc(a1-3)]GlcNAc(b1-3)GalNAc
# Procedure, shortened: as §1
# [24] = biological target: Neu5Ac(a2-3)Gal(b1-4)[Fuc(a1-3)]GlcNAc(b1-6)[Gal(b1-3)]GalNAc
# Procedure, shortened: as §1
# [25] = biological target: Neu5Ac(a2-3)Gal(b1-4)[Fuc(a1-3)]GlcNAc(b1-6)[Neu5Ac(a2-3)Gal(b1-3)]GalNAc
# Procedure, shortened: as §1
# [26] = biological target: Neu5Ac(a2-3)Gal(b1-4)[Fuc(a1-3)]GlcNAc6S
# Procedure, shortened: as §1
# [27] = biological target: Neu5Ac(a2-3)Gal6S(b1-4)GlcNAc
# Procedure, shortened: as §1
# [28] = biological target: Neu5Ac(a2-3)Gal6S(b1-4)[Fuc(a1-3)]GlcNAc
# Procedure, shortened: as §1
# [29] = biological target: Neu5Ac(a2-3)GalNAc
# Procedure, shortened: as §1
# [30] = biological target: Neu5Ac(a2-3)GalNAc(b1-4)GlcNAc
# Procedure, shortened: as §1
# [31] = biological target: Neu5Ac(a2-3)[GalNAc(b1-4)]Gal(b1-4)Glc
# Procedure, shortened: as §1
# [32] = biological target: Neu5Ac(a2-3)[GalNAc(b1-4)]Gal(b1-4)GlcNAc
# Procedure, shortened: as §1
# [33] = biological target: Neu5Ac(a2-3)[GalNAc(b1-4)]Gal(b1-4)GlcNAc(b1-3)GalNAc
# Procedure, shortened: as §1
# [34] = biological target: Neu5Ac(a2-3)[Neu5Ac(a2-6)]GalNAc
# Procedure, shortened: as §1
# [35] = biological target: Neu5Ac(a2-6)Gal
# Procedure, shortened: as §1
binder,measurement,setting,value
B1,glycan array binding signal (z-score),[1],0.844
same,glycan array binding signal (z-score),[2],-0.004
same,glycan array binding signal (z-score),[3],-0.851
same,glycan array binding signal (z-score),[4],0.104
same,glycan array binding signal (z-score),[5],0.453
same,glycan array binding signal (z-score),[6],0.56
same,glycan array binding signal (z-score),[7],0.17
same,glycan array binding signal (z-score),[8],0.603
same,glycan array binding signal (z-score),[9],-1.66
same,glycan array binding signal (z-score),[10],-0.81
same,glycan array binding signal (z-score),[11],-0.295
same,glycan array binding signal (z-score),[12],-0.366
same,glycan array binding signal (z-score),[13],-0.111
same,glycan array binding signal (z-score),[14],0.429
same,glycan array binding signal (z-score),[15],-0.558
same,glycan array binding signal (z-score),[16],-0.021
same,glycan array binding signal (z-score),[17],0.913
same,glycan array binding signal (z-score),[18],-0.335
same,glycan array binding signal (z-score),[19],-1.63
same,glycan array binding signal (z-score),[20],-0.314
same,glycan array binding signal (z-score),[21],0.703
same,glycan array binding signal (z-score),[22],0.293
same,glycan array binding signal (z-score),[23],2.37
same,glycan array binding signal (z-score),[24],1.12
same,glycan array binding signal (z-score),[25],1.82
same,glycan array binding signal (z-score),[26],-0.112
same,glycan array binding signal (z-score),[27],-0.309
same,glycan array binding signal (z-score),[28],-0.698
same,glycan array binding signal (z-score),[29],-0.835
same,glycan array binding signal (z-score),[30],-0.918
same,glycan array binding signal (z-score),[31],-0.263
same,glycan array binding signal (z-score),[32],-0.331
same,glycan array binding signal (z-score),[33],-0.063
same,glycan array binding signal (z-score),[34],-0.175
same,glycan array binding signal (z-score),[35],0.821

# At a glance, part of the list above.
binder,measurement,setting,value
B1,glycan array binding signal (z-score),[16],-0.021
same,glycan array binding signal (z-score),[17],0.913
